# Test results as given in PubChem BioAssay AID493014 (National Center for Advancing Translational Sciences (NCATS), 2011).
# Where “and” joins values, the source holds several entries; their conditions need not be identical. Equal entries are not always repeated. Some of the results follow. Further columns of the screen follow, without active or inactive calls. Most of these compounds were active or inconclusive in the main read-out, so they are no random draw. Words in brackets tell the shape of the fitted curve; partial curves, single points and poor fits give uncertain potencies.
# Test: qHTS Assay to Find Inhibitors of Chronic Active B-Cell Receptor Signaling
# Conditions: ABC-DLBCL IkBa-CBG/CBR reporter, luminescence ratio (green luciferase fused to IkBa over red control in TMD8 lymphoma cells), 4 h
# Outline: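 Cell line TMD8 (human ABC DLBCL), stably expressing tet-inducible CBG68-IkBa fusion and CBR; IMDM/0.5% FBS; cpd up to 46 uM; dox induction, 4 h, 37C/5% CO2; dual luminescence; green/red ratio; MG132 control.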
# [1] = measured here: CBR red luminescence, cell number
# [2] = measured here: IkBa-CBG green luminescence
SMILES,AC50 [1],AC50 [2]
O=C(Cc1ccccc1)NNc1ccc2ccccc2c1,"0.794 µM [falling, full curve]",–
COc1ccc(C2C(C#N)=C(N)OC3=C2C(=O)CC(C)(C)C3)cc1OC (configuration not stated),"6.31 µM [rising, single point]",–
Nc1ccc(Nc2ccncc2[N+](=O)[O-])cc1,"23.1 µM [falling, partial curve]",–
Cc1cccc(-n2nnc(C(=O)NC3CCCc4ccccc43)c2N)c1 (configuration not stated),"6.31 µM [falling, partial curve]",–
CCC1=C2CC[C@H]3C(=O)N(c4ccccc4)C(=O)[C@H]3[C@H]2[C@@]2(C)C(=NCc3ccccc3)OC(=O)N2C1=O,"11.2 µM [falling, partial curve, poor fit]",–
Cc1ccc(S(=O)(=O)NCCc2cc3ccc(C)cc3[nH]c2=O)cc1,"8.91 µM [falling, partial curve]",–
COc1cc(/C=N/NC(=O)COc2ccc(Cl)cc2)ccc1OS(=O)(=O)c1ccc(C)cc1,"13 µM [rising, single point]",–
Cc1ccc(S(=O)(=O)Nc2ccc(Cl)cc2)cc1NC(=O)c1cc2c(s1)CCCC2,"20.6 µM [falling, single point]",–
CCOc1cc(/C=C2\SC(=S)N(Nc3ccccc3)C2=O)ccc1O,"12.6 µM [falling, partial curve, poor fit]",–
COc1cc(/C=N/O)cc(Br)c1OCc1cccc(Cl)c1,"14.1 µM [rising, partial curve, poor fit]",–
Cc1ccccc1N(CC(=O)N/N=C/c1cc(C)n(-c2ccccc2C)c1C)S(C)(=O)=O,"16.4 µM [falling, partial curve, poor fit]",–
O=C(/C=C/c1cn(CC(O)CN2CCOCC2)c2ccccc12)c1cccs1 (configuration not stated),"11.2 µM [falling, partial curve, poor fit]",–
Cc1cc(C(=O)c2ccccc2)c(NC(=O)CCl)s1,"11.6 µM [falling, partial curve]","20.6 µM [rising, partial curve, poor fit]"
Cc1ccc(NC(=O)CSc2cccc3cccnc23)c(C)c1,–,"17.8 µM [falling, single point]"
Fc1ccc(-c2csc3ncnc(N4CCc5ccccc5C4)c23)cc1,"32.6 µM [falling, single point]",–
CN(C)CCSc1nnc(-c2ccccc2)o1,"16.4 µM [falling, partial curve, poor fit]",–
COc1cccc(C2=NN(C(=O)c3ccccc3)C(O)(C(F)(F)F)C2)c1 (configuration not stated),"20.6 µM [falling, single point]",–
C/C(=N/Nc1cc(-c2ccccc2)nc(-c2ccccc2)n1)c1ccc(O)cc1,"2.59 µM [falling, full curve]",–
CCOc1cccc(C(=O)Nc2nnc(-c3cccs3)s2)c1,"1.03 µM [falling, full curve]",–
COc1ccc(Cl)cc1N1C(=O)C2CCCN2C1c1ccc(F)c(F)c1 (configuration not stated),"35.5 µM [falling, single point]",–
O=C1C=CC(=O)N1,"29.1 µM [falling, single point]",–

# 4 entries drawn at random from those above, as already listed:
SMILES,AC50 [1],AC50 [2]
CCC1=C2CC[C@H]3C(=O)N(c4ccccc4)C(=O)[C@H]3[C@H]2[C@@]2(C)C(=NCc3ccccc3)OC(=O)N2C1=O,"11.2 µM [falling, partial curve, poor fit]",–
O=C1C=CC(=O)N1,"29.1 µM [falling, single point]",–
O=C(/C=C/c1cn(CC(O)CN2CCOCC2)c2ccccc12)c1cccs1 (configuration not stated),"11.2 µM [falling, partial curve, poor fit]",–
Cc1ccccc1N(CC(=O)N/N=C/c1cc(C)n(-c2ccccc2C)c1C)S(C)(=O)=O,"16.4 µM [falling, partial curve, poor fit]",–

# Following part

SMILES,AC50 [1],AC50 [2]
Cc1ccc(N2C(=O)C3Sc4[nH]c(=O)sc4C(c4ccccc4)C3C2=O)cc1 (configuration not stated),"25.1 µM [falling, partial curve, poor fit]",–
Cc1cccc(-c2nnc(NC(=O)c3ccco3)s2)c1,"3.16 µM [falling, full curve]",–
O=C(NC(=S)N1CCN(c2ccccc2)CC1)c1ccccc1,"11.2 µM [rising, single point]",–
CC(C)CC(NC(=O)OC(C)(C)C)C(=O)NCc1ccccc1 (configuration not stated),"3.16 µM [rising, full curve]",–
Cc1ccc(NC(=O)N(C)c2ccccc2)cc1,"15.8 µM [falling, single point]",–
O=[N+]([O-])c1ccccc1N/N=C/c1cccc(O)c1O,"10 µM [falling, partial curve, poor fit]",–
O=C(/C=C/c1cn(-c2ccccc2)nc1-c1ccccc1)Nc1ccc(C(=O)O)cc1,"0.708 µM [falling, full curve, poor fit]",–
COc1ccc(-c2nnc(NC(=O)c3ccc4c(c3)OCCO4)o2)cc1,"3.16 µM [falling, full curve, poor fit]",–
CCC(CC)NCc1ccc2c(c1)c1ccccc1n2CC,"15.8 µM [falling, partial curve]",–
Cc1ccc(C)c(CS(=O)(=O)c2cn(CC(=O)N3CCC(C)CC3)c3ccccc23)c1,"18.4 µM [falling, single point]",–
Cc1cc(C)c(-c2csc(NC(=O)CCCc3nc4ccccc4c(=O)[nH]3)n2)c(C)c1,"20.6 µM [falling, single point]",–
N=C1SCC(=O)N1c1ncc(Cc2ccccc2Cl)s1,"3.16 µM [rising, partial curve, poor fit]","3.55 µM [falling, full curve]"
CCOC(=O)Cc1cc(=O)n2[nH]c(-c3ccc(Cl)cc3)cc2n1,"7.31 µM [falling, partial curve]",–
Cc1ccccc1/C=N/n1c(-c2cc(-c3ccccc3)n[nH]2)n[nH]c1=S,"0.631 µM [rising, full curve, poor fit]",–
Cc1csc(CNc2ncnc3ccc(-c4ccc5c(c4)OCCO5)cc23)c1,"29.1 µM [falling, single point] and 18.4 µM [falling, single point]",–
CC(/C=C/c1ccccc1)=N\NC(=S)NC(C)C,"25.1 µM [rising, single point]","11.2 µM [falling, partial curve]"
Cc1ccc(NC(=O)C2CCC(CNc3c(N4CCC(C)CC4)c(=O)c3=O)CC2)cc1F (configuration not stated),"3.98 µM [rising, partial curve]",–
COc1c(Cl)cc(C(=O)Nc2ccccc2C(=O)O)cc1Cl,"1.41 µM [falling, full curve]",–
Cc1cc(C(=O)N/N=C/c2c[nH]c3ccccc23)c(C)o1,"14.6 µM [falling, partial curve, poor fit]",–
CCCOC(=O)c1c(NC(=O)C2CCCO2)sc(C(=O)OC)c1C (configuration not stated),"2.31 µM [falling, partial curve, poor fit]",–
Cc1cc(C(C)(C)C)ccc1OCCn1ccnc1,"20.6 µM [falling, single point]","20.6 µM [rising, partial curve, poor fit]"

SMILES,AC50 [1],AC50 [2]
COc1ccc(/C(O)=C2\C(=O)C(=O)N(c3cc(C)on3)C2c2ccccc2OC)cc1 (configuration not stated),"3.26 µM [falling, partial curve]",–
O=C(Nc1ccccc1N(C(=O)c1ccco1)S(=O)(=O)c1cccs1)c1ccco1,"23.1 µM [falling, single point]",–
COC(=O)c1cccc(Nc2nc3ccccc3nc2C)c1,"3.98 µM [rising, single point]",–
O=C(COc1ccc2c(C(F)(F)F)cc(=O)oc2c1)Nc1ccc2c(c1)OCCO2,"16.4 µM [falling, single point]",–
CC(C)c1ccc(/C=C/C(=O)NCCC2=CCCCC2)cc1,"29.1 µM [falling, single point]","32.6 µM [rising, partial curve, poor fit]"
CCc1ccc(C2NC(=S)NC3=C2C(=O)N(c2ccccc2OC)C(c2ccc(CC)cc2)N3)cc1 (configuration not stated),"18.4 µM [falling, single point]",–
C=CCn1c(SCC(=O)NC2CCS(=O)(=O)C2)nnc1-c1cc2c(s1)CCC(CC)C2 (configuration not stated),"0.116 µM [falling, full curve, poor fit]",–
CCN1CCN(C(=S)NC(=O)c2cccc(Br)c2)CC1,–,"8.2 µM [falling, single point]"
COc1ccc(N2CCN(C(=O)COC(=O)c3oc4ccc(OC)cc4c3C)CC2)cc1,"14.6 µM [rising, partial curve, poor fit]",–
O=C(CSc1nc(-c2ccccc2)c(-c2ccccc2)[nH]1)Nc1nccs1,"3.98 µM [falling, partial curve, poor fit]","4.47 µM [rising, partial curve, poor fit]"
CCOc1ccc2nc(NC(=O)c3ccoc3C)sc2c1,"11.2 µM [falling, partial curve]",–
CS(=O)(=O)N1CCC(Oc2cccc(C(=O)NCCCOc3cccnc3)c2)CC1,"14.1 µM [falling, single point]",–
Clc1ccc(OCc2cn3ccccc3n2)c2ncccc12,"10 µM [falling, partial curve, poor fit]",–
O=C(Nc1cccc([N+](=O)[O-])c1)ONC1=NCCCCC1,"6.31 µM [rising, full curve, poor fit]",–
CC1C/C(=N/NC(=O)c2cccs2)CC(C)(C)C1 (configuration not stated),"20.6 µM [falling, partial curve]",–
Cc1noc(C)c1S(=O)(=O)N(CC(=O)Nc1ccc2c(c1)OCCO2)c1ccc(C(C)C)cc1,"35.5 µM [falling, single point]",–
CN1CCN(c2ncnc3sc(-c4ccccc4)cc23)CC1,"5.62 µM [rising, partial curve, poor fit]",–
CCc1ccc(O)c(N=Cc2cccc(C)c2O)c1,"2.06 µM [rising, partial curve, poor fit]",–
COc1ccc(S(=O)(=O)NNC(=S)NCCc2ccccc2)c(OC)c1,"4.47 µM [rising, full curve, poor fit]",–
